# Key:
# Type in all cases: cell-based
# C. parvum HNJ-1 strain = assay: Initial epigenetic library compound screening for C. parvum; conditions: Cryptosporidium parvum, HCT-8, 48 h, read-out: Parasite inhibition (%) (primary screening)
# C. parvum = conditions: Cryptosporidium parvum, HCT-8, 48 h, read-out: Parasite inhibition (%)
# HCT-8 cells = assay: Cytotoxicity to HCT-8 cells; conditions: Homo sapiens, HCT-8, 48 h, read-out: Host cell IC50
smiles,measurement,setting,value
O=C(CCCCCCC(=O)Nc1ccccc1)NO [SAHA],inhibition at 5 µM,C. parvum HNJ-1 strain,100%
same,inhibition at 5 µM,C. parvum,-0.8 ± 5.8%
same,IC50,HCT-8 cells,2500 ± 300 nM
